Data source: PubChem BioAssay AID1508597 (Cure First, 2020)

Assay: 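Survival screen with siRNA in ovarian cancer cells derived from patients, with or without rucaparib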 (primary screen)
System: human ovarian carcinoma lines grown from tumours: OCI-P5x (papillary serous) and OCI-C5x (clear cell)
Reagent: siRNA pool against human genes, 1.25 pmol siRNA per well
Time to read-out: 72 h or 96 h, depending on the cell culture
Conditions: rucaparib 20 µM (about IC30) or vehicle, present until read-out
Rucaparib or vehicle: Rucaparib
Cell line: OCI-C5x (clear cell)
Detection: 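Luminescent ATP-based viability assay read 72 or 96 h after transfection, depending on culture, given as normalised percent viability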
Reading the numbers: viability, normalised: higher = more viable cells remaining
Call rule: 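a well counts as a hit if its normalised viability is under 80 percent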
Calls: active = viability under 80%; inactive = viability 80% or more
Shown is a random part of the about 2,100 reagents, in one setting of the screen. 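Calls flag viability under 80% in either arm, not effects specific to rucaparib; the reference for percent is not stated.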 Entries without a mark were called inactive. The record does not give: the 100% reference.

STK36, technical replicate 1 scored viability, normalised (%) = 61.1 (active).
For STK36, technical replicate 2 the deposit lists viability, normalised (%) = 48.2 (active).
With STK36, technical replicate 3, the values are viability, normalised (%) = 55.6 (active).
With RNF20, technical replicate 1, the values are viability, normalised (%) = 57 (active).
For RNF20, technical replicate 2 the deposit lists viability, normalised (%) = 40 (active).
For RNF20, technical replicate 3, the entry reads viability, normalised (%) = 55.2 (active).

Hits, among the entries above:
STK36, technical replicate 1: viability, normalised (%) = 61.1 (active)
STK36, technical replicate 2: viability, normalised (%) = 48.2 (active)
STK36, technical replicate 3: viability, normalised (%) = 55.6 (active)
RNF20, technical replicate 1: viability, normalised (%) = 57 (active)
RNF20, technical replicate 2: viability, normalised (%) = 40 (active)
RNF20, technical replicate 3: viability, normalised (%) = 55.2 (active)

Additional results:
PHF2, technical replicate 1 scored viability, normalised (%) = 44.1 (active).
For PHF2, technical replicate 2, the entry reads viability, normalised (%) = 50 (active).
With PHF2, technical replicate 3 the deposit lists viability, normalised (%) = 43.3 (active).
ENPP3, technical replicate 1 scored viability, normalised (%) = 55.9 (active).
With ENPP3, technical replicate 2, the entry reads viability, normalised (%) = 55.8 (active).
With ENPP3, technical replicate 3, the entry reads viability, normalised (%) = 48.1 (active).
